These are yes or no findings as the source states them, for the method shown. Binding seen in cells or lysates may run through a third protein. Some results given as binding are weak or reduced against the parent protein; the word gives no strength.

Chains of the proteins cited; added tags and fusions are not shown.
UniProt P05556: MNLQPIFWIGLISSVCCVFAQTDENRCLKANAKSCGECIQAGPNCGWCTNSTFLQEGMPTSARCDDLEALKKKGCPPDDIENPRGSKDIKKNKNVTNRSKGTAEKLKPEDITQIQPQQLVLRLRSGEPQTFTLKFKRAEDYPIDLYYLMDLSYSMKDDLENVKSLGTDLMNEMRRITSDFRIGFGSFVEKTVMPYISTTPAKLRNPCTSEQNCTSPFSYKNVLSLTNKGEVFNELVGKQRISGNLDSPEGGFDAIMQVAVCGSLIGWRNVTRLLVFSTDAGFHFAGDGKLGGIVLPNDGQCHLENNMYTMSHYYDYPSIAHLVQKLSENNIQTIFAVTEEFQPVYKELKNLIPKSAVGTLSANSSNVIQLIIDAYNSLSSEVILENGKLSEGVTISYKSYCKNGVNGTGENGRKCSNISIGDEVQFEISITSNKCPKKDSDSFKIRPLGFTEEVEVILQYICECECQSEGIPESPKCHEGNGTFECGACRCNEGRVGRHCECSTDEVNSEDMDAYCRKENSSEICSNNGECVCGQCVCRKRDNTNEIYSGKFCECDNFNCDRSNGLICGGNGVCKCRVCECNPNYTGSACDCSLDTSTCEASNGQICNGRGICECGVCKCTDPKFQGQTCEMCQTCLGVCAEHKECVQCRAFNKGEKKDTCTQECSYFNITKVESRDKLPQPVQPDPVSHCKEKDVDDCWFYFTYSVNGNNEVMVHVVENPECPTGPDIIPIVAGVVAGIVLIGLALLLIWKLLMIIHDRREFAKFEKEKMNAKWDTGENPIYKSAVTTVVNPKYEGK

For assay [1], the target named is integrin β1 (human (endogenous in HCC827 and NCI-H358)) (UniProt P05556). Description: co-IP; H358 control cells lysed in RIPA buffer without SDS; anti-integrin β1 or anti-claudin-7 antibody at 4 °C overnight, protein A or G beads; washes with RIPA, 0.5 M NaCl and 10 mM Tris pH 7.4; western blot for the other protein.
For assay [2] the target is unchanged. Description: co-IP; HCC827 control cells lysed in RIPA buffer without SDS; anti-integrin β1 or anti-claudin-7 antibody at 4 °C overnight, protein A or G beads; washes with RIPA, 0.5 M NaCl and 10 mM Tris pH 7.4; western blot for the other protein. A general note: A western blot detects proteins with antibodies after separation by electrophoresis.

B1: claudin-7 (protein, UniProt O95471 1-211)
chain: MANSGLQLLGFSMALLGWVGLVACTAIPQWQMSSYAGDNIITAQAMYKGLWMDCVTQSTGMMSCKMYDSVLALSAALQATRALMVVSLVLGFLAMFVATMGMKCTRCGGDDKVKKARIAMGGGIIFIVAGLAALVACSWYGHQIVTDFYNPLIPTNIKYEFGPAIFIGWAGSALVILGGALLSCSCPGNESKAGYRVPRSYPKSNSSKEYV
In the case of B1, the binding result in assay [1] and in assay [2] was “binds” throughout.

Source of the values: PMC4470020.
